# This is one part of the list.
# How the values were obtained:
# Test in all cases: glycan array binding signal (z-score within array); higher = stronger binding
# Conditions in all cases: glycan notation: IUPAC condensed, linker removed
# [1] = molecular target: Neu5Ac(a2-6)Gal(b1-4)GlcNAc(b1-3)Gal(b1-4)GlcNAc(b1-3)GalNAc
# Procedure, shortened: (§1)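 Glycan array data were curated from 3228 arrays in the Consortium for Functional Glycomics database and kept only where the protein sequence was available. Glycan names were converted to IUPAC-condensed notation, and columns mapping to the same glycan were averaged. The binding signal is a within-array Z-score, averaged across arrays of the same protein sequence at different concentrations or buffers and across linkers. Negative Z-scores can be read as non-binding.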
# [2] = molecular target: Neu5Ac(a2-6)Gal(b1-4)GlcNAc(b1-3)Gal(b1-4)GlcNAc(b1-3)[Neu5Ac(a2-6)Gal(b1-4)GlcNAc(b1-3)Gal(b1-4)GlcNAc(b1-6)]GalNAc
# Procedure, shortened: as §1
# [3] = molecular target: Neu5Ac(a2-6)Gal(b1-4)GlcNAc(b1-3)Gal(b1-4)GlcNAc(b1-6)[Gal(b1-3)]GalNAc
# Procedure, shortened: as §1
# [4] = molecular target: Neu5Ac(a2-6)Gal(b1-4)GlcNAc(b1-3)Gal(b1-4)[Fuc(a1-3)]GlcNAc(b1-3)Gal(b1-4)[Fuc(a1-3)]GlcNAc
# Procedure, shortened: as §1
# [5] = molecular target: Neu5Ac(a2-6)Gal(b1-4)GlcNAc(b1-3)GalNAc
# Procedure, shortened: as §1
# [6] = molecular target: Neu5Ac(a2-6)Gal(b1-4)GlcNAc(b1-3)[Neu5Ac(a2-6)Gal(b1-4)GlcNAc(b1-6)]GalNAc
# Procedure, shortened: as §1
# [7] = molecular target: Neu5Ac(a2-6)Gal(b1-4)GlcNAc(b1-6)GalNAc
# Procedure, shortened: as §1
# [8] = molecular target: Neu5Ac(a2-6)Gal(b1-4)GlcNAc(b1-6)[Gal(b1-3)GlcNAc(b1-3)]Gal(b1-4)Glc
# Procedure, shortened: as §1
# [9] = molecular target: Neu5Ac(a2-6)Gal(b1-4)GlcNAc(b1-6)[Gal(b1-3)]GalNAc
# Procedure, shortened: as §1
# [10] = molecular target: Neu5Ac(a2-6)Gal(b1-4)GlcNAc6S
# Procedure, shortened: as §1
# Neu5Ac(a2-6)GalNAc = molecular target: Neu5Ac(a2-6)GalNAc
# Procedure, shortened: as §1
# [11] = molecular target: Neu5Ac(a2-6)GalNAc(b1-4)GlcNAc
# Procedure, shortened: as §1
# [12] = molecular target: Neu5Ac(a2-6)GalNAc(b1-4)GlcNAc6S
# Procedure, shortened: as §1
# [13] = molecular target: Neu5Ac(a2-6)GlcNAc(b1-4)GlcNAc
# Procedure, shortened: as §1
# [14] = molecular target: Neu5Ac(a2-6)GlcNAc(b1-4)GlcNAc(b1-4)GlcNAc
# Procedure, shortened: as §1
# Neu5Ac(a2-8)Neu5Ac = molecular target: Neu5Ac(a2-8)Neu5Ac
# Procedure, shortened: as §1
# [15] = molecular target: Neu5Ac(a2-8)Neu5Ac(a2-3)Gal(b1-3)GalNAc(b1-4)[Neu5Ac(a2-3)]Gal(b1-4)Glc
# Procedure, shortened: as §1
# [16] = molecular target: Neu5Ac(a2-8)Neu5Ac(a2-3)Gal(b1-3)GalNAc(b1-4)[Neu5Ac(a2-8)Neu5Ac(a2-3)]Gal(b1-4)Glc
# Procedure, shortened: as §1
# [17] = molecular target: Neu5Ac(a2-8)Neu5Ac(a2-3)Gal(b1-4)Glc
# Procedure, shortened: as §1
# [18] = molecular target: Neu5Ac(a2-8)Neu5Ac(a2-3)Gal(b1-4)GlcNAc
# Procedure, shortened: as §1
# [19] = molecular target: Neu5Ac(a2-8)Neu5Ac(a2-3)[Gal(b1-3)GalNAc(b1-4)]Gal(b1-4)Glc
# Procedure, shortened: as §1
# [20] = molecular target: Neu5Ac(a2-8)Neu5Ac(a2-3)[GalNAc(b1-4)]Gal(b1-4)Glc
# Procedure, shortened: as §1
# [21] = molecular target: Neu5Ac(a2-8)Neu5Ac(a2-8)Neu5Ac
# Procedure, shortened: as §1
# [22] = molecular target: Neu5Ac(a2-8)Neu5Ac(a2-8)Neu5Ac(a2-3)Gal(b1-4)Glc
# Procedure, shortened: as §1
# [23] = molecular target: Neu5Ac(a2-8)Neu5Ac(a2-8)Neu5Ac(a2-3)[Gal(b1-3)GalNAc(b1-4)]Gal(b1-4)Glc
# Procedure, shortened: as §1
# [24] = molecular target: Neu5Ac(a2-8)Neu5Ac(a2-8)Neu5Ac(a2-3)[GalNAc(b1-4)]Gal(b1-4)Glc
# Procedure, shortened: as §1
# [25] = molecular target: Neu5Ac(a2-8)Neu5Ac(a2-8)Neu5Ac(a2-8)Neu5Ac(a2-3)[GalNAc(b1-4)]Gal(b1-4)Glc
# Procedure, shortened: as §1
# [26] = molecular target: Neu5Ac(a2-8)Neu5Gc(a2-3)Gal(b1-4)GlcNAc
# Procedure, shortened: as §1
# [27] = molecular target: Neu5Ac(b2-6)Gal(b1-4)GlcNAc
# Procedure, shortened: as §1
# Neu5Ac(b2-6)GalNAc = molecular target: Neu5Ac(b2-6)GalNAc
# Procedure, shortened: as §1
# [28] = molecular target: Neu5Ac9Ac(a2-3)Gal(b1-3)GlcNAc
# Procedure, shortened: as §1
# [29] = molecular target: Neu5Ac9Ac(a2-3)Gal(b1-4)GlcNAc
# Procedure, shortened: as §1
# [30] = molecular target: Neu5Ac9Ac(a2-6)Gal(b1-4)GlcNAc
# Procedure, shortened: as §1
# [31] = molecular target: Neu5Gc(a2-3)Gal(b1-3)GlcNAc
# Procedure, shortened: as §1
# [32] = molecular target: Neu5Gc(a2-3)Gal(b1-3)[Fuc(a1-4)]GlcNAc
# Procedure, shortened: as §1
# Neu5Gc(a2-3)Gal(b1-4)Glc = molecular target: Neu5Gc(a2-3)Gal(b1-4)Glc
# Procedure, shortened: as §1
# [33] = molecular target: Neu5Gc(a2-3)Gal(b1-4)GlcNAc
# Procedure, shortened: as §1
# [34] = molecular target: Neu5Gc(a2-3)Gal(b1-4)GlcNAc(b1-3)Gal(b1-4)GlcNAc(b1-2)Man(a1-3)[Neu5Gc(a2-3)Gal(b1-4)GlcNAc(b1-3)Gal(b1-4)GlcNAc(b1-2)Man(a1-6)]Man(b1-4)GlcNAc(b1-4)GlcNAc
# Procedure, shortened: as §1
# [35] = molecular target: Neu5Gc(a2-3)Gal(b1-4)[Fuc(a1-3)]GlcNAc
# Procedure, shortened: as §1
# [36] = molecular target: Neu5Gc(a2-6)Gal(b1-4)GlcNAc
# Procedure, shortened: as §1
# Neu5Gc(a2-6)GalNAc = molecular target: Neu5Gc(a2-6)GalNAc
# Procedure, shortened: as §1
# [37] = molecular target: Neu5Gc(a2-8)Neu5Ac(a2-3)Gal(b1-4)GlcNAc
# Procedure, shortened: as §1
# [38] = molecular target: Neu5Gc(a2-8)Neu5Gc(a2-3)Gal(b1-4)GlcNAc
# Procedure, shortened: as §1
# [39] = molecular target: Neu5Gc(a2-8)Neu5Gc(a2-3)Gal(b1-4)GlcNAc(b1-3)Gal(b1-4)GlcNAc
# Procedure, shortened: as §1
# [40] = molecular target: Neu5Gc(a2-8)Neu5Gc(a2-6)Gal(b1-4)GlcNAc
# Procedure, shortened: as §1
# [41] = molecular target: Neu5Gc(b2-6)Gal(b1-4)GlcNAc
# Procedure, shortened: as §1
binder,measurement,setting,value
LF82 (Escherichia coli) (protein) ADWGPCRTASGDPFIFVTSFTKNIQNPTDNVTGQTYPDFYQWALGDKYSGVCECPSPNPTEARPTLYKTESTLAAGHNSTYFKITNNLEVSTRVYIANVGNVQVPFINKSNSQPGRECDQPTFGWTTGSKGQLSLYIAKPFVGEQNIPQTIIVSVFGTKKENVYSSVPISQVLLSGKVTVTQGCELAAGTSLDIDFGEYQAHDFKGRTGQPPQNVQKIQKELTFNCTNISDGVHIYLSLEGTPNAAYPSAISLGNADVGAVIEDGKGNILKPNDSNSLLEMNPGSLYEYVKRKVTTTITAYPVSTTGKLPAAGDYSGVATMHVELDGGGGGGGGGGATTDLGAKGTLKFSLKISQGHHHHHH,glycan array binding signal (z-score),[1],-0.729
same,glycan array binding signal (z-score),[2],0.949
same,glycan array binding signal (z-score),[3],0.883
same,glycan array binding signal (z-score),[4],0.159
same,glycan array binding signal (z-score),[5],-0.16
same,glycan array binding signal (z-score),[6],1.29
same,glycan array binding signal (z-score),[7],-0.504
same,glycan array binding signal (z-score),[8],-0.769
same,glycan array binding signal (z-score),[9],1.2
same,glycan array binding signal (z-score),[10],-0.632
same,glycan array binding signal (z-score),Neu5Ac(a2-6)GalNAc,-1.27
same,glycan array binding signal (z-score),[11],-0.387
same,glycan array binding signal (z-score),[12],0.356
same,glycan array binding signal (z-score),[13],0.052
same,glycan array binding signal (z-score),[14],2.4
same,glycan array binding signal (z-score),Neu5Ac(a2-8)Neu5Ac,-0.442
same,glycan array binding signal (z-score),[15],1.07
same,glycan array binding signal (z-score),[16],-0.243
same,glycan array binding signal (z-score),[17],-1.24
same,glycan array binding signal (z-score),[18],0.061
same,glycan array binding signal (z-score),[19],-0.278
same,glycan array binding signal (z-score),[20],-0.701
same,glycan array binding signal (z-score),[21],-0.079
same,glycan array binding signal (z-score),[22],0.664
same,glycan array binding signal (z-score),[23],1.41
same,glycan array binding signal (z-score),[24],-0.553
same,glycan array binding signal (z-score),[25],2.59
same,glycan array binding signal (z-score),[26],-0.211
same,glycan array binding signal (z-score),[27],-1.23
same,glycan array binding signal (z-score),Neu5Ac(b2-6)GalNAc,-0.437
same,glycan array binding signal (z-score),[28],0.57
same,glycan array binding signal (z-score),[29],-0.415
same,glycan array binding signal (z-score),[30],-0.823
same,glycan array binding signal (z-score),[31],3.85
same,glycan array binding signal (z-score),[32],-0.11
same,glycan array binding signal (z-score),Neu5Gc(a2-3)Gal(b1-4)Glc,0.406
same,glycan array binding signal (z-score),[33],0.258
same,glycan array binding signal (z-score),[34],-0.467
same,glycan array binding signal (z-score),[35],0.971
same,glycan array binding signal (z-score),[36],1.06
same,glycan array binding signal (z-score),Neu5Gc(a2-6)GalNAc,1.03
same,glycan array binding signal (z-score),[37],0.958
same,glycan array binding signal (z-score),[38],-0.425
same,glycan array binding signal (z-score),[39],-0.48
same,glycan array binding signal (z-score),[40],-0.409
same,glycan array binding signal (z-score),[41],-0.769

# Reprinted at random: two records from the list, in no set order.
binder,measurement,setting,value
LF82 (Escherichia coli) (protein) ADWGPCRTASGDPFIFVTSFTKNIQNPTDNVTGQTYPDFYQWALGDKYSGVCECPSPNPTEARPTLYKTESTLAAGHNSTYFKITNNLEVSTRVYIANVGNVQVPFINKSNSQPGRECDQPTFGWTTGSKGQLSLYIAKPFVGEQNIPQTIIVSVFGTKKENVYSSVPISQVLLSGKVTVTQGCELAAGTSLDIDFGEYQAHDFKGRTGQPPQNVQKIQKELTFNCTNISDGVHIYLSLEGTPNAAYPSAISLGNADVGAVIEDGKGNILKPNDSNSLLEMNPGSLYEYVKRKVTTTITAYPVSTTGKLPAAGDYSGVATMHVELDGGGGGGGGGGATTDLGAKGTLKFSLKISQGHHHHHH,glycan array binding signal (z-score),[37],0.958
same,glycan array binding signal (z-score),[32],-0.11

# — the supplement of paper PMC8728848
